Drawing on paper PMC12973532, this text covers binding for 11 molecules.

The chains behind the UniProt entries cited, without tags or fusion partners.
UniProt O00264: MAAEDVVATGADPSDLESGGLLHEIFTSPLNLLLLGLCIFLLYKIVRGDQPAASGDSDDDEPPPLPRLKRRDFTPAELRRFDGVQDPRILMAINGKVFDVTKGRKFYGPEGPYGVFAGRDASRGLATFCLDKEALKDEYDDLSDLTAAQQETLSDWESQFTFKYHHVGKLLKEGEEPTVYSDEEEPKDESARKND

These are yes or no findings as the source states them, for the method shown. In cells and extracts the contact can be indirect. Here binding means that the protein was enriched with, or labelled near, the bait; the list need not be complete.

Experiment [1] has as its target FLAG-tagged PGRMC1 (human progesterone receptor membrane component 1) (human) (UniProt O00264). Briefly: affinity purification with mass spectrometry; FLAG-PGRMC1 stably expressed in HEK293T cells as bait; isolated mitochondria lysed, affinity purification by FLAG; prey filtered with CRAPome, fold-change threshold 2; empty-vector cells as control.
Experiment [2] has the same target. Briefly: affinity purification with mass spectrometry; FLAG-PGRMC1 stably expressed in HepG2 cells as bait; isolated mitochondria lysed, affinity purification by FLAG; prey filtered with CRAPome, fold-change threshold 1.5; empty-vector cells as control.

B1: ABCB10 (human) (protein, UniProt Q9NRK6 106-738)
chain: AGPGAPRLPRARFPGGPAAAAWAGDEAWRRGPAAPPGDKGRLRPAAAGLPEARKLLGLAYPERRRLAAAVGFLTMSSVISMSAPFFLGKIIDVIYTNPTVDYSDNLTRLCLGLSAVFLCGAAANAIRVYLMQTSGQRIVNRLRTSLFSSILRQEVAFFDKTRTGELINRLSSDTALLGRSVTENLSDGLRAGAQASVGISMMFFVSPNLATFVLSVVPPVSIIAVIYGRYLRKLTKVTQDSLAQATQLAEERIGNVRTVRAFGKEMTEIEKYASKVDHVMQLARKEAFARAGFFGATGLSGNLIVLSVLYKGGLLMGSAHMTVGELSSFLMYAFWVGISIGGLSSFYSELMKGLGAGGRLWELLEREPKLPFNEGVILNEKSFQGALEFKNVHFAYPARPEVPIFQDFSLSIPSGSVTALVGPSGSGKSTVLSLLLRLYDPASGTISLDGHDIRQLNPVWLRSKIGTVSQEPILFSCSIAENIAYGADDPSSVTAEEIQRVAEVANAVAFIRNFPQGFNTVVGEKGVLLSGGQKQRIAIARALLKNPKILLLDEATSALDAENEYLVQEALDRLMDGRTVLVIAHRLSTIKNANMVAVLDQGKITEYGKHEELLSKPNGIYRKLMNKQSFISA
For B1, the binding result in experiment [1] and in experiment [2] was “binds” throughout.

B2: SAMM50 (human) (protein, UniProt Q9Y512 1-469)
chain: MGTVHARSLEPLPSSGPDFGGLGEEAEFVEVEPEAKQEILENKDVVVQHVHFDGLGRTKDDIIICEIGDVFKAKNLIEVMRKSHEAREKLLRLGIFRQVDVLIDTCQGDDALPNGLDVTFEVTELRRLTGSYNTMVGNNEGSMVLGLKLPNLLGRAEKVTFQFSYGTKETSYGLSFFKPRPGNFERNFSVNLYKVTGQFPWSSLRETDRGMSAEYSFPIWKTSHTVKWEGVWRELGCLSRTASFAVRKESGHSLKSSLSHAMVIDSRNSSILPRRGALLKVNQELAGYTGGDVSFIKEDFELQLNKQLIFDSVFSASFWGGMLVPIGDKPSSIADRFYLGGPTSIRGFSMHSIGPQSEGDYLGGEAYWAGGLHLYTPLPFRPGQGGFGELFRTHFFLNAGNLCNLNYGEGPKAHIRKLAECIRWSYGAGIVLRLGNIARLELNYCVPMGVQTGDRICDGVQFGAGIRFL
B2: the binding entry in experiment [1] and in experiment [2] was “binds” each time.

B3: ABCD3 (human) (protein, UniProt P28288 1-659)
chain: MAAFSKYLTARNSSLAGAAFLLLCLLHKRRRALGLHGKKSGKPPLQNNEKEGKKERAVVDKVFFSRLIQILKIMVPRTFCKETGYLVLIAVMLVSRTYCDVWMIQNGTLIESGIIGRSRKDFKRYLLNFIAAMPLISLVNNFLKYGLNELKLCFRVRLTKYLYEEYLQAFTYYKMGNLDNRIANPDQLLTQDVEKFCNSVVDLYSNLSKPFLDIVLYIFKLTSAIGAQGPASMMAYLVVSGLFLTRLRRPIGKMTITEQKYEGEYRYVNSRLITNSEEIAFYNGNKREKQTVHSVFRKLVEHLHNFILFRFSMGFIDSIIAKYLATVVGYLVVSRPFLDLSHPRHLKSTHSELLEDYYQSGRMLLRMSQALGRIVLAGREMTRLAGFTARITELMQVLKDLNHGKYERTMVSQQEKGIEGVQVIPLIPGAGEIIIADNIIKFDHVPLATPNGDVLIRDLNFEVRSGANVLICGPNGCGKSSLFRVLGELWPLFGGRLTKPERGKLFYVPQRPYMTLGTLRDQVIYPDGREDQKRKGISDLVLKEYLDNVQLGHILEREGGWDSVQDWMDVLSGGEKQRMAMARLFYHKPQFAILDECTSAVSVDVEGYIYSHCRKVGITLFTVSHRKSLWKHHEYYLHMDGRGNYEFKQITEDTVEFGS
Turning to B3, the binding entry in experiment [1] and in experiment [2] was “binds” each time.

B4: DNAJC11 (human) (protein, UniProt Q9NVH1 1-559)
chain: MATALSEEELDNEDYYSLLNVRREASSEELKAAYRRLCMLYHPDKHRDPELKSQAERLFNLVHQAYEVLSDPQTRAIYDIYGKRGLEMEGWEVVERRRTPAEIREEFERLQREREERRLQQRTNPKGTISVGVDATDLFDRYDEEYEDVSGSSFPQIEINKMHISQSIEAPLTATDTAILSGSLSTQNGNGGGSINFALRRVTSAKGWGELEFGAGDLQGPLFGLKLFRNLTPRCFVTTNCALQFSSRGIRPGLTTVLARNLDKNTVGYLQWRWGIQSAMNTSIVRDTKTSHFTVALQLGIPHSFALISYQHKFQDDDQTRVKGSLKAGFFGTVVEYGAERKISRHSVLGAAVSVGVPQGVSLKVKLNRASQTYFFPIHLTDQLLPSAMFYATVGPLVVYFAMHRLIIKPYLRAQKEKELEKQRESAATDVLQKKQEAESAVRLMQESVRRIIEAEESRMGLIIVNAWYGKFVNDKSRKSEKVKVIDVTVPLQCLVKDSKLILTEASKAGLPGFYDPCVGEEKNLKVLYQFRGVLHQVMVLDSEALRIPKQSHRIDTDG
On to B4, for which the binding entry in experiment [1] and in experiment [2] was “binds” throughout.

B5: MBOAT7 (human) (protein, UniProt Q96N66 1-472)
chain: MSPEEWTYLVVLLISIPIGFLFKKAGPGLKRWGAAAVGLGLTLFTCGPHTLHSLVTILGTWALIQAQPCSCHALALAWTFSYLLFFRALSLLGLPTPTPFTNAVQLLLTLKLVSLASEVQDLHLAQRKEMASGFSKGPTLGLLPDVPSLMETLSYSYCYVGIMTGPFFRYRTYLDWLEQPFPGAVPSLRPLLRRAWPAPLFGLLFLLSSHLFPLEAVREDAFYARPLPARLFYMIPVFFAFRMRFYVAWIAAECGCIAAGFGAYPVAAKARAGGGPTLQCPPPSSPEKAASLEYDYETIRNIDCYSTDFCVRVRDGMRYWNMTVQWWLAQYIYKSAPARSYVLRSAWTMLLSAYWHGLHPGYYLSFLTIPLCLAAEGRLESALRGRLSPGGQKAWDWVHWFLKMRAYDYMCMGFVLLSLADTLRYWASIYFCIHFLALAALGLGLALGGGSPSRRKAASQPTSLAPEKLREE
For the molecule B5, the binding entry in experiment [1] and in experiment [2] was “binds” in each case.

B6: heme oxygenase 2 (human) (protein, UniProt P30519 1-316)
chain: MSAEVETSEGVDESEKKNSGALEKENQMRMADLSELLKEGTKEAHDRAENTQFVKDFLKGNIKKELFKLATTALYFTYSALEEEMERNKDHPAFAPLYFPMELHRKEALTKDMEYFFGENWEEQVQCPKAAQKYVERIHYIGQNEPELLVAHAYTRYMGDLSGGQVLKKVAQRALKLPSTGEGTQFYLFENVDNAQQFKQLYRARMNALDLNMKTKERIVEEANKAFEYNMQIFNELDQAGSTLARETLEDGFPVHDGKGDMRKCPFYAAEQDKGALEGSSCPFRTAMAVLRKPSLQFILAAGVALAAGLLAWYYM
For the molecule B6, the binding result in experiment [1] and in experiment [2] was “binds” each time.

B7: HM13 (human) (protein, UniProt Q8TCT9 1-377)
chain: MDSALSDPHNGSAEAGGPTNSTTRPPSTPEGIALAYGSLLLMALLPIFFGALRSVRCARGKNASDMPETITSRDAARFPIIASCTLLGLYLFFKIFSQEYINLLLSMYFFVLGILALSHTISPFMNKFFPASFPNRQYQLLFTQGSGENKEEIINYEFDTKDLVCLGLSSIVGVWYLLRKHWIANNLFGLAFSLNGVELLHLNNVSTGCILLGGLFIYDVFWVFGTNVMVTVAKSFEAPIKLVFPQDLLEKGLEANNFAMLGLGDVVIPGIFIALLLRFDISLKKNTHTYFYTSFAAYIFGLGLTIFIMHIFKHAQPALLYLVPACIGFPVLVALAKGEVTEMFSYEESNPKDPAAVTESKEGTEASASKGLEKKEK
For B7, the binding result in experiment [1] and in experiment [2] was “binds” throughout.

B8: CISD2 (human) (protein, UniProt Q8N5K1 1-135)
chain: MVLESVARIVKVQLPAYLKRLPVPESITGFARLTVSEWLRLLPFLGVLALLGYLAVRPFLPKKKQQKDSLINLKIQKENPKVVNEINIEDLCLTKAAYCRCWRSKTFPACDGSHNKHNELTGDNVGPLILKKKEV
Turning to B8, the binding entry in experiment [1] and in experiment [2] was “binds” each time.

B9: MFRN2 (human) (protein, UniProt Q96A46 1-364)
chain: MELEGRGAGGVAGGPAAGPGRSPGESALLDGWLQRGVGRGAGGGEAGACRPPVRQDPDSGPDYEALPAGATVTTHMVAGAVAGILEHCVMYPIDCVKTRMQSLQPDPAARYRNVLEALWRIIRTEGLWRPMRGLNVTATGAGPAHALYFACYEKLKKTLSDVIHPGGNSHIANGAAGCVATLLHDAAMNPAEVVKQRMQMYNSPYHRVTDCVRAVWQNEGAGAFYRSYTTQLTMNVPFQAIHFMTYEFLQEHFNPQRRYNPSSHVLSGACAGAVAAAATTPLDVCKTLLNTQESLALNSHITGHITGMASAFRTVYQVGGVTAYFRGVQARVIYQIPSTAIAWSVYEFFKYLITKRQEEWRAGK
For B9, the binding entry in experiment [1] and in experiment [2] was “binds” in each case.

B10: SLC25A11 (human) (protein, UniProt Q02978 1-314)
chain: MAATASAGAGGIDGKPRTSPKSVKFLFGGLAGMGATVFVQPLDLVKNRMQLSGEGAKTREYKTSFHALTSILKAEGLRGIYTGLSAGLLRQATYTTTRLGIYTVLFERLTGADGTPPGFLLKAVIGMTAGATGAFVGTPAEVALIRMTADGRLPADQRRGYKNVFNALIRITREEGVLTLWRGCIPTMARAVVVNAAQLASYSQSKQFLLDSGYFSDNILCHFCASMISGLVTTAASMPVDIAKTRIQNMRMIDGKPEYKNGLDVLFKVVRYEGFFSLWKGFTPYYARLGPHTVLTFIFLEQMNKAYKRLFLSG
Regarding B10, the binding result in experiment [1] and in experiment [2] was “binds” throughout.

B11: progesterone receptor membrane protein 2 (human) (protein, UniProt O15173 1-223)
chain: MAAGDGDVKLGTLGSGSESSNDGGSESPGDAGAAAEGGGWAAAALALLTGGGEMLLNVALVALVLLGAYRLWVRWGRRGLGAGAGAGEESPATSLPRMKKRDFSLEQLRQYDGSRNPRILLAVNGKVFDVTKGSKFYGPAGPYGIFAGRDASRGLATFCLDKDALRDEYDDLSDLNAVQMESVREWEMQFKEKYDYVGRLLKPGEEPSEYTDEEDTKDHNKQD
Take B11: the binding entry in experiment [1] and in experiment [2] was “binds” in each case.
